PubChem BioAssay AID743121 – NCATS – 2013

Assay: 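Genes whose silencing strengthens cell killing by camptothecin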 (primary screen)
Cells: MDA-MB-231 cells, a human breast cancer line
Reagent: single siRNA against human genes, 20 nM siRNA (0.8 pmol per well)
Timing: 120 h (drug added 48 h after transfection, read 72 h later)
Treatment: camptothecin 20 nM (about EC30) for 72 h; vehicle 0.1% DMSO in parallel plates
Detection: 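Cell viability by ATP luminescence (CellTiter-Glo) as % of non-targeting siRNA wells, and the log2 ratio of viability without drug over viability with camptothecin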
Scale: log2 vehicle/camptothecin viability: higher = stronger sensitisation to camptothecin
Hit rule: 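Active genes have an RSA gene-level p-value below 0.001, computed from the ratios of their separate siRNAs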
The deposit covers about 26,000 reagents; shown is an unselected part. 167 of all reagents (0.63%) count as active. 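Calls are per gene from RSA p-values that are not deposited; an individual active-marked siRNA can sensitise only weakly.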 Reagents against one gene are numbered here. Further read-outs or replicates are left out here.

log2 vehicle/camptothecin viability, by gene and reagent
SUMO1 (small ubiquitin like modifier 1): #1 -0.317 inactive; #2 0.0122 inactive; #3 -0.412 inactive; #4 -0.243 inactive
GDF10 (growth differentiation factor 10): #1 -0.206 inactive; #2 -0.484 inactive; #3 -0.121 inactive; #4 -0.158 inactive
JAZF1 (JAZF zinc finger 1): #1 -0.222 inactive; #2 -0.217 inactive; #3 -0.111 inactive; #4 0.279 inactive
NMU (neuromedin U): #1 -0.141 inactive; #2 0.233 inactive; #3 -0.112 inactive; #4 -0.37 inactive
FNDC3B (fibronectin type III domain containing 3B): #1 0.4 inactive; #2 -0.0803 inactive; #3 -0.196 inactive
DMPK (DM1 protein kinase): #1 0.141 inactive; #2 -0.13 inactive; #3 -0.165 inactive; #4 0.374 inactive
RAD51AP1 (RAD51 associated protein 1): #1 -0.212 inactive; #2 -0.31 inactive; #3 -0.287 inactive; #4 -0.341 inactive

Entries listed so far whose gene name begins with D or d (4):
log2 vehicle/camptothecin viability, by gene and reagent
DMPK (DM1 protein kinase): #1 0.141 inactive; #2 -0.13 inactive; #3 -0.165 inactive; #4 0.374 inactive

More records follow:
log2 vehicle/camptothecin viability, by gene and reagent
GALE (UDP-galactose-4-epimerase): #1 -0.527 inactive; #2 -0.0654 inactive; #3 -0.447 inactive; #4 -0.467 inactive
YAP1 (Yes1 associated transcriptional regulator): #1 -0.336 inactive; #2 -0.0722 inactive; #3 -0.146 inactive; #4 -0.108 inactive
CLDN3 (claudin 3): #1 -0.271 inactive; #2 -0.442 inactive; #3 -0.0202 inactive; #4 -0.285 inactive
SPINT1 (serine peptidase inhibitor, Kunitz type 1): #1 -0.0945 inactive; #2 -0.18 inactive; #3 -0.332 inactive; #4 -0.0726 inactive
FKBP14 (FKBP prolyl isomerase 14): #1 -0.463 inactive; #2 -0.161 inactive; #3 -0.353 inactive; #4 -0.0764 inactive
PIGR (polymeric immunoglobulin receptor): #1 0.775 inactive; #2 -0.33 inactive; #3 0.00753 inactive; #4 -0.0419 inactive
PEX5L (peroxisomal biogenesis factor 5 like): #1 -0.308 inactive; #2 -0.139 inactive; #3 -0.31 inactive; #4 -0.469 inactive
ADCY3 (adenylate cyclase 3): #1 -0.319 inactive; #2 -0.0795 inactive; #3 0.364 inactive; #4 0.0061 inactive
HMGA2 (high mobility group AT-hook 2): #1 -0.0671 inactive; #2 -0.173 inactive; #3 -0.189 inactive
GABRA6 (gamma-aminobutyric acid type A receptor subunit alpha6): #1 -0.0617 inactive; #2 0.0292 inactive; #3 -0.173 inactive; #4 -0.0176 inactive
RDX (radixin): #1 0.531 inactive; #2 -0.547 inactive; #3 -0.03 inactive; #4 -0.154 inactive
